{"source": "the supplement of paper PMC8728848", "binders": {"B1": {"name": "SP15308B-bot-339-22-339 (Bacteroides ovatus) (protein)", "chain": "NEWEDEQYEQYVSFKAPIASGSDGVTTIYVRYKDNGKVTYQLPIIVSGSTVNSQDRDIHIAVDKDTLKTLNIERFSLYRPELWYTEMEEDKYEFPETVHIPAGSCVELLNIDFNLQDIDMLEKWVLPLTIVDDGSYAYQSHPRKNYAKALLKVVPFNNYSGSYTASSMKVYTYINGKPDTNARTTDKRTGYVVDNNSIFFYAGLINEDMDKDMRKKYKINVHFKEDGTLDMKQDDPSNEMEFELIGTPTYSSTSVMDATRPYLERRYVQIMFEYDFQDFTYGGSGTEVIPIKYRVAGSMTLLRNINTQIPDEDQQIEW"}}, "experiment_in_all_cases": "glycan array binding signal (z-score within array); higher = stronger binding", "settings_in_all_cases": "glycan notation: IUPAC condensed, linker removed", "key": {"[1]": {"target": "Neu5Ac(a2-3)Gal(b1-3)GlcNAc(b1-2)Man", "method_in_brief": "(§1)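 From the Consortium for Functional Glycomics database, 3228 arrays were curated, keeping only those whose protein sequence was available. Binding is given as a within-array Z-score averaged across arrays sharing a protein sequence and across linkers. Negative Z-scores can be read as non-binding.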"}, "[2]": {"target": "Neu5Ac(a2-3)Gal(b1-3)GlcNAc(b1-2)Man(a1-3)[GlcNAc(b1-4)][Neu5Ac(a2-3)Gal(b1-3)GlcNAc(b1-2)Man(a1-6)]Man(b1-4)GlcNAc(b1-4)GlcNAc", "method_in_brief": "as §1"}, "[3]": {"target": "Neu5Ac(a2-3)Gal(b1-3)GlcNAc(b1-2)Man(a1-3)[Neu5Ac(a2-3)Gal(b1-3)GlcNAc(b1-2)Man(a1-6)]Man(b1-4)GlcNAc(b1-4)GlcNAc", "method_in_brief": "as §1"}, "[4]": {"target": "Neu5Ac(a2-3)Gal(b1-3)GlcNAc(b1-3)Gal(b1-3)GlcNAc", "method_in_brief": "as §1"}, "[5]": {"target": "Neu5Ac(a2-3)Gal(b1-3)GlcNAc(b1-3)Gal(b1-4)GlcNAc", "method_in_brief": "as §1"}, "[6]": {"target": "Neu5Ac(a2-3)Gal(b1-3)GlcNAc(b1-3)GalNAc", "method_in_brief": "as §1"}, "[7]": {"target": "Neu5Ac(a2-3)Gal(b1-3)GlcNAc(b1-4)Gal(b1-4)Glc", "method_in_brief": "as §1"}, "[8]": {"target": "Neu5Ac(a2-3)Gal(b1-3)GlcNAc(b1-6)GalNAc", "method_in_brief": "as §1"}, "[9]": {"target": "Neu5Ac(a2-3)Gal(b1-3)GlcNAc6S", "method_in_brief": "as §1"}, "[10]": {"target": "Neu5Ac(a2-3)Gal(b1-3)[Fuc(a1-4)]GlcNAc", "method_in_brief": "as §1"}, "[11]": {"target": "Neu5Ac(a2-3)Gal(b1-3)[Fuc(a1-4)]GlcNAc(b1-3)Gal(b1-3)[Fuc(a1-4)]GlcNAc", "method_in_brief": "as §1"}, "[12]": {"target": "Neu5Ac(a2-3)Gal(b1-3)[Fuc(a1-4)]GlcNAc(b1-3)Gal(b1-4)[Fuc(a1-3)]GlcNAc", "method_in_brief": "as §1"}, "[13]": {"target": "Neu5Ac(a2-3)Gal(b1-3)[GlcNAc(b1-6)]GalNAc", "method_in_brief": "as §1"}, "[14]": {"target": "Neu5Ac(a2-3)Gal(b1-3)[Neu5Ac(a2-6)]GalNAc", "method_in_brief": "as §1"}, "[15]": {"target": "Neu5Ac(a2-3)Gal(b1-3)[Neu5Ac(a2-6)]GlcNAc(b1-3)[Fuc(a1-3)[Gal(b1-4)]GlcNAc(b1-6)]Gal(b1-4)Glc", "method_in_brief": "as §1"}, "[16]": {"target": "Neu5Ac(a2-3)Gal(b1-3)]Neu5Ac(a2-3)Gal(b1-4)]GlcNAc", "method_in_brief": "as §1"}, "Neu5Ac(a2-3)Gal(b1-4)Glc": {"target": "Neu5Ac(a2-3)Gal(b1-4)Glc", "method_in_brief": "as §1"}, "[17]": {"target": "Neu5Ac(a2-3)Gal(b1-4)GlcNAc", "method_in_brief": "as §1"}, "[18]": {"target": "Neu5Ac(a2-3)Gal(b1-4)GlcNAc(b1-2)Man", "method_in_brief": "as §1"}, "[19]": {"target": "Neu5Ac(a2-3)Gal(b1-4)GlcNAc(b1-2)Man(a1-3)[GlcNAc(b1-4)][Neu5Ac(a2-3)Gal(b1-4)GlcNAc(b1-2)Man(a1-6)]Man(b1-4)GlcNAc(b1-4)GlcNAc", "method_in_brief": "as §1"}, "[20]": {"target": "Neu5Ac(a2-3)Gal(b1-4)GlcNAc(b1-2)Man(a1-3)[Neu5Ac(a2-3)Gal(b1-4)GlcNAc(b1-2)Man(a1-6)]Man(b1-4)GlcNAc(b1-4)GlcNAc", "method_in_brief": "as §1"}, "[21]": {"target": "Neu5Ac(a2-3)Gal(b1-4)GlcNAc(b1-2)Man(a1-3)[Neu5Ac(a2-3)Gal(b1-4)GlcNAc(b1-2)Man(a1-6)]Man(b1-4)GlcNAc(b1-4)[Fuc(a1-6)]GlcNAc", "method_in_brief": "as §1"}, "[22]": {"target": "Neu5Ac(a2-3)Gal(b1-4)GlcNAc(b1-2)Man(a1-3)[Neu5Ac(a2-6)Gal(b1-4)GlcNAc(b1-2)Man(a1-6)]Man(b1-4)GlcNAc(b1-4)GlcNAc", "method_in_brief": "as §1"}, "[23]": {"target": "Neu5Ac(a2-3)Gal(b1-4)GlcNAc(b1-2)[Neu5Ac(a2-3)Gal(b1-4)GlcNAc(b1-4)]Man(a1-3)[GlcNAc(b1-4)][Neu5Ac(a2-3)Gal(b1-4)GlcNAc(b1-2)[Neu5Ac(a2-3)Gal(b1-4)GlcNAc(b1-6)]Man(a1-6)]Man(b1-4)GlcNAc(b1-4)GlcNAc", "method_in_brief": "as §1"}, "[24]": {"target": "Neu5Ac(a2-3)Gal(b1-4)GlcNAc(b1-2)[Neu5Ac(a2-3)Gal(b1-4)GlcNAc(b1-4)]Man(a1-3)[GlcNAc(b1-4)][Neu5Ac(a2-3)Gal(b1-4)GlcNAc(b1-4)Man(a1-6)]Man(b1-4)GlcNAc(b1-4)GlcNAc", "method_in_brief": "as §1"}, "[25]": {"target": "Neu5Ac(a2-3)Gal(b1-4)GlcNAc(b1-2)[Neu5Ac(a2-3)Gal(b1-4)GlcNAc(b1-6)]Man(a1-6)[Neu5Ac(a2-3)Gal(b1-4)GlcNAc(b1-2)Man(a1-3)]Man(b1-4)GlcNAc(b1-4)GlcNAc", "method_in_brief": "as §1"}, "[26]": {"target": "Neu5Ac(a2-3)Gal(b1-4)GlcNAc(b1-2)[Neu5Ac(a2-3)Gal(b1-4)GlcNAc(b1-6)]Man(a1-6)[Neu5Ac(a2-3)Gal(b1-4)GlcNAc(b1-2)Man(a1-3)][GlcNAc(b1-4)]Man(b1-4)GlcNAc(b1-4)GlcNAc", "method_in_brief": "as §1"}, "[27]": {"target": "Neu5Ac(a2-3)Gal(b1-4)GlcNAc(b1-3)Gal", "method_in_brief": "as §1"}, "[28]": {"target": "Neu5Ac(a2-3)Gal(b1-4)GlcNAc(b1-3)Gal(b1-3)GlcNAc", "method_in_brief": "as §1"}, "[29]": {"target": "Neu5Ac(a2-3)Gal(b1-4)GlcNAc(b1-3)Gal(b1-4)GlcNAc", "method_in_brief": "as §1"}, "[30]": {"target": "Neu5Ac(a2-3)Gal(b1-4)GlcNAc(b1-3)Gal(b1-4)GlcNAc(b1-2)Man(a1-3)[Neu5Ac(a2-3)Gal(b1-4)GlcNAc(b1-3)Gal(b1-4)GlcNAc(b1-2)Man(a1-6)]Man(b1-4)GlcNAc(b1-4)GlcNAc", "method_in_brief": "as §1"}, "[31]": {"target": "Neu5Ac(a2-3)Gal(b1-4)GlcNAc(b1-3)Gal(b1-4)GlcNAc(b1-3)Gal(b1-4)GlcNAc", "method_in_brief": "as §1"}, "[32]": {"target": "Neu5Ac(a2-3)Gal(b1-4)GlcNAc(b1-3)Gal(b1-4)GlcNAc(b1-3)Gal(b1-4)GlcNAc(b1-2)Man(a1-3)[Neu5Ac(a2-3)Gal(b1-4)GlcNAc(b1-3)Gal(b1-4)GlcNAc(b1-3)Gal(b1-4)GlcNAc(b1-2)Man(a1-6)]GalNAc", "method_in_brief": "as §1"}, "[33]": {"target": "Neu5Ac(a2-3)Gal(b1-4)GlcNAc(b1-3)Gal(b1-4)GlcNAc(b1-3)GalNAc", "method_in_brief": "as §1"}, "[34]": {"target": "Neu5Ac(a2-3)Gal(b1-4)GlcNAc(b1-3)Gal(b1-4)GlcNAc(b1-3)[Neu5Ac(a2-3)Gal(b1-4)GlcNAc(b1-3)Gal(b1-4)GlcNAc(b1-6)]GalNAc", "method_in_brief": "as §1"}, "[35]": {"target": "Neu5Ac(a2-3)Gal(b1-4)GlcNAc(b1-3)Gal(b1-4)GlcNAc(b1-6)[Gal(b1-3)]GalNAc", "method_in_brief": "as §1"}, "[36]": {"target": "Neu5Ac(a2-3)Gal(b1-4)GlcNAc(b1-3)Gal(b1-4)[Fuc(a1-3)]GlcNAc", "method_in_brief": "as §1"}, "[37]": {"target": "Neu5Ac(a2-3)Gal(b1-4)GlcNAc(b1-3)GalNAc", "method_in_brief": "as §1"}}, "note": "This is one part of the list."}
{"binder": "B1", "values": [{"measurement": "glycan array binding signal (z-score)", "setting": "[1]", "result": -0.178}, {"measurement": "glycan array binding signal (z-score)", "setting": "[2]", "result": -0.316}, {"measurement": "glycan array binding signal (z-score)", "setting": "[3]", "result": -0.211}, {"measurement": "glycan array binding signal (z-score)", "setting": "[4]", "result": -0.169}, {"measurement": "glycan array binding signal (z-score)", "setting": "[5]", "result": -0.305}, {"measurement": "glycan array binding signal (z-score)", "setting": "[6]", "result": -0.054}, {"measurement": "glycan array binding signal (z-score)", "setting": "[7]", "result": -0.688}, {"measurement": "glycan array binding signal (z-score)", "setting": "[8]", "result": -0.009}, {"measurement": "glycan array binding signal (z-score)", "setting": "[9]", "result": -0.245}, {"measurement": "glycan array binding signal (z-score)", "setting": "[10]", "result": -0.5}, {"measurement": "glycan array binding signal (z-score)", "setting": "[11]", "result": -0.072}, {"measurement": "glycan array binding signal (z-score)", "setting": "[12]", "result": -0.187}, {"measurement": "glycan array binding signal (z-score)", "setting": "[13]", "result": -0.624}, {"measurement": "glycan array binding signal (z-score)", "setting": "[14]", "result": -0.071}, {"measurement": "glycan array binding signal (z-score)", "setting": "[15]", "result": 0.337}, {"measurement": "glycan array binding signal (z-score)", "setting": "[16]", "result": -0.519}, {"measurement": "glycan array binding signal (z-score)", "setting": "Neu5Ac(a2-3)Gal(b1-4)Glc", "result": 0.116}, {"measurement": "glycan array binding signal (z-score)", "setting": "[17]", "result": 0.081}, {"measurement": "glycan array binding signal (z-score)", "setting": "[18]", "result": -0.269}, {"measurement": "glycan array binding signal (z-score)", "setting": "[19]", "result": -0.644}, {"measurement": "glycan array binding signal (z-score)", "setting": "[20]", "result": 0.076}, {"measurement": "glycan array binding signal (z-score)", "setting": "[21]", "result": 0.322}, {"measurement": "glycan array binding signal (z-score)", "setting": "[22]", "result": -0.554}, {"measurement": "glycan array binding signal (z-score)", "setting": "[23]", "result": -0.547}, {"measurement": "glycan array binding signal (z-score)", "setting": "[24]", "result": 0.424}, {"measurement": "glycan array binding signal (z-score)", "setting": "[25]", "result": 0.067}, {"measurement": "glycan array binding signal (z-score)", "setting": "[26]", "result": -0.513}, {"measurement": "glycan array binding signal (z-score)", "setting": "[27]", "result": -0.261}, {"measurement": "glycan array binding signal (z-score)", "setting": "[28]", "result": -0.681}, {"measurement": "glycan array binding signal (z-score)", "setting": "[29]", "result": -0.477}, {"measurement": "glycan array binding signal (z-score)", "setting": "[30]", "result": -0.361}, {"measurement": "glycan array binding signal (z-score)", "setting": "[31]", "result": -0.253}, {"measurement": "glycan array binding signal (z-score)", "setting": "[32]", "result": 1.14}, {"measurement": "glycan array binding signal (z-score)", "setting": "[33]", "result": -0.308}, {"measurement": "glycan array binding signal (z-score)", "setting": "[34]", "result": -0.158}, {"measurement": "glycan array binding signal (z-score)", "setting": "[35]", "result": -0.412}, {"measurement": "glycan array binding signal (z-score)", "setting": "[36]", "result": 0.04}, {"measurement": "glycan array binding signal (z-score)", "setting": "[37]", "result": -0.232}]}
